Source: article PMC4513986
Results are given in words; binding and its absence hold for the method and conditions named. Binding seen in cells or lysates may run through a third protein.

Biological target: T1, scavenger receptor class B type I (SR-BI) (mouse (endogenous in peritoneal macrophages)) (UniProt Q61009)
T1 sequence: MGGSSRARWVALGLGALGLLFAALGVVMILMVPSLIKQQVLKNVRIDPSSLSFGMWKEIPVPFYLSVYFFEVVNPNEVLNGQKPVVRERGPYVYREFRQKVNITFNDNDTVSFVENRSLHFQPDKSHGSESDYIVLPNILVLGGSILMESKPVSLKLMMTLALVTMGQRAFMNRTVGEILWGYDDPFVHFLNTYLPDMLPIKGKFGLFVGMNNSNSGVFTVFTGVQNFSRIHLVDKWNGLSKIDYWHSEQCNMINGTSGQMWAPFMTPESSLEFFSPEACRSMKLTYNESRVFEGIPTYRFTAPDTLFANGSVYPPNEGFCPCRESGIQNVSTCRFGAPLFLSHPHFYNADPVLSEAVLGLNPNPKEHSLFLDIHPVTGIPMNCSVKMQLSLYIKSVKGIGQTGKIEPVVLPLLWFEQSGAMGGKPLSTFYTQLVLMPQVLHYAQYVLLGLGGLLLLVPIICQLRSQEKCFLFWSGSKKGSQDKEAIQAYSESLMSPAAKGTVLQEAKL
Assay: co-IP; WT mouse peritoneal macrophage lysates incubated with antibody (anti-SR-BI, anti-Src or anti-LRP1), then protein A/G magnetic beads; precipitated partner detected by Western blotting

B1: engulfment adaptor PTB domain (GULP) (protein, UniProt Q8K2A1 1-304)
chain: MNRAFSRKKDKTWMHTPEALSKHYIPYNAKFLGSTEVEQPKGTEVVRDAVRKLKFARHIKKSEGQKIPKVELQISIYGVKILEPKTKEVQHNCQLHRISFCADDKTDKRIFTFICKDSESNKHLCFVFDSEKCAEEITLTIGQAFDLAYRKFLESGGKDVETRKQIAGMQKRIQDLETENMELKNKVQDLESRLRTTQVSTSPAHGVTVMSPSTDIFDMIPFSPISHQSPTSARNGTQLPPIPSRSAETKRDLFGAEPFDPFNCGSGDFPPDIQSKLDEMQEGFKMGLTLEGTVFCLDPLDSRC
- binding: no binding
